Source: patent US8227428B2, “Anti-infammatory macrolide” (Glaxo Group Limited, priority 2009, dated 2012)
Some of these results come from one statement about several compounds together.

System: Lung neutrophilia induced by bacterial lipopolysaccharide (LPS)
Experiment: Lung neutrophilia induced by bacterial lipopolysaccharide (LPS) in male BALB/cJ mice
Format: in vivo
Settings: average; single dose 200 mg/kg i.p.; vs LPS challenged untreated animals
Description: For intraperitoneal administration (i.p.) compounds are dissolved in a final concentration of 10 mg/mL. The required amount of compound is first dissolved in dimethylsulfoxide (DMSO, Sigma) and then diluted with 0.5% (w/v) methyl-cellulose so that the final DMSO concentration is 5% (v/v). The obtained solution is applied in a dose volume of 0.2 mL per 10 g of animal. Therefore, the compound dose is 200 mg/kg.
Male BALB/cJ mice (Charles River, France), with an average weight of ˜30 g are randomly grouped (n=8 in testing group, 10 in positive control and 8 in negative control). Mice receive intraperitoneally (i.p.) a single dose of 200 mg/kg of test compound. Two hours after administration, 2 μg of LPS (from Escherichia coli serotype 0111:B4, Sigma), dissolved in sterile PBS in a volume of 60 μL, is intranasally administered to all experimental groups except the negative control group, which receive the same volume of vehicle (PBS). Animals are sacrificed approximately 24 hours after application of LPS in order to obtain bronchioalveolar lavage fluid (BALF), which is used to determine absolute number of cells and the percentage of neutrophils. Results are expressed as percentage decrease in total cell number and number of neutrophils in BALF of treated animals compared to positive control (LPS challenged, but untreated animals).

SMILES | inhibition of total cell number in BALF
CC[C@H]1OC(=O)[C@H](C)[C@@H](O[C@H]2C[C@@](C)(OC)[C@@H](OC(=O)CN(CC)CC)[C@H](C)O2)[C@H](C)[C@@H](O[C@@H]2O[C@H](C)C[C@H](NC)[C@H]2O)[C@](C)(OC)C[C@@H](C)C(=O)N[C@H](C)[C@@H](O)[C@]1(C)O [Example 1, 3′-N-Demethyl-4″-O-(2-diethylaminoethanoyl)-6-O-methyl-9a-aza-9a-homoerythromycin A] | more than 90%
CC[C@H]1OC(=O)[C@H](C)[C@@H](O[C@H]2C[C@@](C)(OC)[C@@H](OC(=O)CCN(CC)CC)[C@H](C)O2)[C@H](C)[C@@H](O[C@@H]2O[C@H](C)C[C@H](NC)[C@H]2O)[C@](C)(OC)C[C@@H](C)C(=O)N[C@H](C)[C@@H](O)[C@]1(C)O [Example 2, 3′-N-Demethyl-4″-O-(3-diethylaminopropionoyl)-6-O-methyl-9a-aza-9a-homoerythromycin A] | more than 90%
CC[C@H]1OC(=O)[C@H](C)[C@@H](O[C@H]2C[C@@](C)(OC)[C@@H](OC(=O)CN(CC)CC)[C@H](C)O2)[C@H](C)[C@@H](O[C@@H]2O[C@H](C)C[C@H](N(C)C)[C@H]2O)[C@](C)(OC)C[C@@H](C)C(=O)N[C@H](C)[C@@H](O)[C@]1(C)O [Example 3, 4″-O-(2-diethylaminoethanoyl)-6-O-methyl-9a-aza-9a-homoerythromycin A] | more than 90%
